From patent publication US20120122958
Weaker means in comparison with the reference protein, sequence or condition of that experiment.

Chains of the proteins cited; added tags and fusions are not shown.
UniProt Q6NUN9, whole entry C571A: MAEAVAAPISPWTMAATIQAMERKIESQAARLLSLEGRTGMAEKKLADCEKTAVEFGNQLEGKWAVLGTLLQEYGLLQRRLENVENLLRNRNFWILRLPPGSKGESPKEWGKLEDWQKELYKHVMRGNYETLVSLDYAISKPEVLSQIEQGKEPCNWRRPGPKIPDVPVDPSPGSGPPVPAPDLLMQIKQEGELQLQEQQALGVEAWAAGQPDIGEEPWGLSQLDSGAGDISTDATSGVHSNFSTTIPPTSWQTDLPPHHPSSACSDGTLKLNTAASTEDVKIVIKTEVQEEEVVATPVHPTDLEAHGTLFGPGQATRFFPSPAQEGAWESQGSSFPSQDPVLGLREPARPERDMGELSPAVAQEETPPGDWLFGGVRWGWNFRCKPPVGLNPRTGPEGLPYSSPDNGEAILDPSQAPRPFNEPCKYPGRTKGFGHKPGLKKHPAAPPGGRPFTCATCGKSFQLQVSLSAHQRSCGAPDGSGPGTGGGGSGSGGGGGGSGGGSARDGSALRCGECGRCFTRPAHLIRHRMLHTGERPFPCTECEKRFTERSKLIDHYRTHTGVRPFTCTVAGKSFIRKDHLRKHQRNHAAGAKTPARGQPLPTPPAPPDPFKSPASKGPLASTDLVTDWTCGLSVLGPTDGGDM

Target: PARIS C571A (Homo sapiens) (UniProt Q6NUN9)
Assay: EMSA
Conditions: substantially reduced binding; purified recombinant protein; protein details: GST; label: 32P

ACATACAGGCTATTTTGTTGATTAAAC (double strand) [IRS2-WT]
binding result: binds more weakly

AGTGTGTTGGTATTTTTCCCTCAGTTC (double strand) [IRS1-WT]
binding result: binds more weakly

GCCACTTGCTTGTTTTGGAAGGAAAAT (double strand) [IRS3-WT]
binding result: binds more weakly
